Measured values taken from PubChem BioAssay AID1117319 (Southern Research Institute, 2015).
The whole screen tested about 260,000 compounds, of which about 1,500 (0.58%) were called active. Inconclusive means that the source gave no clear call. Such entries were picked first, then a sample of the others.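 Rule for the calls: active = inhibition above a set limit at one or more doses, reproduced on every date tested; inconclusive = results disagree between test dates, or hit never tested in dose response; inactive = the rest.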

Chains of the proteins cited; added tags and fusions are not shown. Lines headed by an entry give the natural chain unless they say otherwise; changes in a name come on top.
UniProt P69720: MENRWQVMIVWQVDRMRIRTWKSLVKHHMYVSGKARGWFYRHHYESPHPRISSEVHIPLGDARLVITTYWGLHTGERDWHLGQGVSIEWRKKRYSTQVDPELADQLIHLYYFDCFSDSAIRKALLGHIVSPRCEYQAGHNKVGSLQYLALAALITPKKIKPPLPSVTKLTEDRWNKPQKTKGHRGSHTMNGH
UniProt P69721: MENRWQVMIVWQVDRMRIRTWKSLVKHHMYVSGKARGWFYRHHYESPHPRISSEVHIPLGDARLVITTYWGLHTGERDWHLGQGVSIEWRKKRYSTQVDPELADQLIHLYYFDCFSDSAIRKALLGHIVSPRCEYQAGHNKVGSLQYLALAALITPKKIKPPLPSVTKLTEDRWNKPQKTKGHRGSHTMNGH
UniProt P69722: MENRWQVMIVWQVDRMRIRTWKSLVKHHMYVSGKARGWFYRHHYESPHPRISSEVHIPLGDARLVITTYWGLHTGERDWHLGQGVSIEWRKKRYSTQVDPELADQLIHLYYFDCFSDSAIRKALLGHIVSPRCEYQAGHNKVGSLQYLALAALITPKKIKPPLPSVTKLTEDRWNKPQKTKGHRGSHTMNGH
UniProt P69723: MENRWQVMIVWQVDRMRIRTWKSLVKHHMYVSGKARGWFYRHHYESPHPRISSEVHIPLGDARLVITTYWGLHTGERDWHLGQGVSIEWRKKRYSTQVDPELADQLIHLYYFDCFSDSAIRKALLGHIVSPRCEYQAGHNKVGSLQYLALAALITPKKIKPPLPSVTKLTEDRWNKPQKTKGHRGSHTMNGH
UniProt Q9HC16: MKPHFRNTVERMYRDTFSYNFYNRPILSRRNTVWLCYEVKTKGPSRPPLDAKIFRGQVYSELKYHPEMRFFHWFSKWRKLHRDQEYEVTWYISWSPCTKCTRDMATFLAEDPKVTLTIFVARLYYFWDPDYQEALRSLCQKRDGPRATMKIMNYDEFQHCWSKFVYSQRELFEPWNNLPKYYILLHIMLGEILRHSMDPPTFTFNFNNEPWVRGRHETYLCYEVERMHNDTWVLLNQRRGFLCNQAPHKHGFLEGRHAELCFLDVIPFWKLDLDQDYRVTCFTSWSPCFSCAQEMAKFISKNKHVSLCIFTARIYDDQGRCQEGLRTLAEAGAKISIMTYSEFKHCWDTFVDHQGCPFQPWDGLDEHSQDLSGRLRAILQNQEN

molecular target: Virion infectivity factor (Human immunodeficiency virus type 1 group M subtype B (isolate BH10)) + Virion infectivity factor (Human immunodeficiency virus type 1 group M subtype B (isolate BRU/LAI)) + Virion infectivity factor (Human immunodeficiency virus type 1 group M subtype B (isolate PCV12)) + Virion infectivity factor (Human immunodeficiency virus type 1 group M subtype B (isolate HXB2)) + DNA dC->dU-editing enzyme APOBEC-3G (Homo sapiens) (UniProt P69720+P69721+P69722+P69723+Q9HC16); assay: inhibitors of Vif binding to APOBEC3G peptide, primary screen, biochemical, TR-FRET, GST-Vif 1-94, biotin-A3G peptide, dose response retest (AID 1117319); conditions: stronger effect = higher value;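 note: Vif residues 1-94 fused to GST binding biotinylated APOBEC3G peptide 110-148; 0% = full assay without inhibitor and 100% = GST in place of GST-Vif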

SMILES	inhibition
COc1ccc(C2OC(=O)CC2C(=O)NC(C)C)cc1 (stereo not given)	inconclusive: 49.7%
CC(=O)N1CCN(C(=O)CNc2cc(C(F)(F)F)ccc2OCC(F)(F)F)CC1	inconclusive: 18.5%
CCn1c(-c2cc(-c3ccccc3OC)nc3ccccc23)n[nH]c1=S	inconclusive: 33.5%
CCCCC1=CC2=CC(=O)C(C)(OC(=O)CC)C(=O)C2=CN1CC(C)C (stereo not given)	inconclusive: 40.5%
CC(=O)Nc1nonc1C(=O)N1CCC(C)CC1	inconclusive: 33.4%
O=c1c2cc(N3CCOCC3)ccc2[nH]c(=S)n1Cc1ccc(Cl)cc1	inactive: -2.52%
COC(=O)/C(=C/Nc1cccc2ccccc12)[N+](=O)[O-]	inconclusive: 56.3%
COCCn1c(N2CCN(c3ccc(OC)cc3)CC2)nc2c1c(=O)n(C)c(=O)n2C	inconclusive: 34.4%
COc1cc(C(C#N)N2CCC(c3ccccc3)=N2)ccc1O (stereo not given)	inconclusive: 49.8%
COc1ccc(NN=Nc2nc3c([nH]2)c(=O)n(C)c(=O)n3C)cc1	inconclusive: 60.9%
CCCc1nc(NC(C)=O)c(C#N)c(-c2ccco2)c1CC	inconclusive: 35.8%
Cc1ccc(C)c(N2CCN(C(=O)CCS(=O)(=O)c3ccc4c(c3)CCN4C(=O)C3CC3)CC2)c1	inconclusive: 33.8%
COc1ccccc1-c1nc(-c2cccc(C)c2)no1	inconclusive: 36.2%
O=C1C2CC=CCC2C(=O)N1CC1CCCO1 (stereo not given)	inconclusive: 44.3%
O=C(Nc1ccccc1C(=O)N/N=C/c1ccco1)c1ccccc1	inconclusive: 40.4%
O=C(N=C1N=C2C=CC=CN2Cc2ccccc21)c1ccc(S(=O)(=O)N2CCCC2)cc1	inconclusive: 40.5%
Cc1cc(O)c(/C=N/Nc2ccc(Cl)cc2)c(=O)o1	inconclusive: 40.7%
Cc1ccc(NC(=S)N/N=C/c2c(C)nn(-c3ccccc3)c2N2CCCC2)cc1	inconclusive: 33.3%
CC(C)c1ccc(NC(=O)CCCN2C(=O)NC(C)(C)C2=O)cc1	inconclusive: 39.8%
O=C(CCc1nnc(CCCCc2ccccc2)o1)N1CCCC(O)C1 (stereo not given)	inactive: 20%
Cc1cc(NC(=O)CCC(=O)N(CC(=O)NC2CCCC2)c2ccccc2)no1	inconclusive: 38.1%
Cc1cc(CN2CCOCC2)c(O)c(C2(C)CCCCC2)c1	inconclusive: 36.8%
CCC1=C/C(=C\c2ccc3c(c2)OCO3)C(=O)S1	inconclusive: 50.7%

SMILES	inhibition
O=[N+]([O-])c1ccc(-c2ccc(/C=N/c3c(-c4ccco4)nc4ccccn34)o2)c(Cl)c1	inconclusive: 57.1%
Cn1cc(Br)c(C(=O)N2CCc3ccccc32)n1	inconclusive: 49.2%
Cc1cc(C)c(N2C(=NC(=O)CCCC(=O)O)SC3CS(=O)(=O)CC32)c(C)c1 (stereo not given)	inconclusive: 42.6%
CC(=O)Oc1ccc(C(=O)Cc2ccccn2)c(O)c1	inconclusive: 42.8%
O=C(NCCCN1CCCC1=O)C1CCN(S(=O)(=O)N2CCOCC2)CC1	inconclusive: 55.9%
CN(C)c1nc(N(C)C)nc(N(C)C)n1	inconclusive: 40.1%
Cc1ccc(NC(=O)COc2ccc(Br)cn2)cc1	inconclusive: 42%
CC/C(=N\NC(=S)Nc1cc(C)ccc1C)c1ccc(OC(F)F)cc1	inconclusive: 33.2%
O=C(O)c1ccc2c3c(ncnc13)-c1ccccc1C2=O	inconclusive: 37.8%
COc1ccc(Br)cc1CN(C)C(=O)c1cc(Cl)c2c(c1)OCCO2	inconclusive: 63.2%
C[C@H](NC(=O)OC(C)(C)C)c1nnc(SCC(=O)c2ccc(Cl)cc2)o1	inconclusive: 55.9%
Cc1ccc(C(=O)NCc2ccccc2)cc1Br	inconclusive: 33.9%
COc1ccc(S(=O)(=O)NCCSc2ccccc2)cc1OC	inconclusive: 40.9%
CCN(c1ccccc1)S(=O)(=O)c1ccc2c(c1)N(C(C)=O)CCS2	inactive: -1.04%
Cc1ccc(S(=O)(=O)c2nc(-c3ccc(F)cc3)oc2SCC(=O)NCC2CCCO2)cc1 (stereo not given)	inconclusive: 47%
CC(C)C(C(=O)Nc1sc2c(c1C#N)CCCCC2)N1C(=O)c2ccccc2C1=O (stereo not given)	inconclusive: 38.6%
O=C(N/C(=C/c1ccco1)C(=O)N1CCCC1)c1cccs1	inconclusive: 51.2%
CSCC[C@H](NC(=O)CCNC(C)=O)c1nc2ccccc2[nH]1	inconclusive: 41.8%
COc1cc(/C=C2/C(C)=C(C#N)c3nc(N)c(C#N)c(C)c32)ccc1OCC(=O)O	inconclusive: 44%
CC(C)(C)c1[nH]nc2c1C(c1ccccc1OC(=O)N1CCOCC1)C(C#N)=C(N)O2 (stereo not given)	inconclusive: 37%
Nc1ccc2[nH]ncc2c1	inconclusive: 44.9%
COc1ccccc1-n1c(CNC(=O)c2ccco2)nnc1SCC(=O)Nc1ccc(F)cc1	inactive: -4.03%
CCn1ncc(Br)c1C(=O)Nc1cc(C)ccc1F	inconclusive: 58.5%

Quoted from above (4 entries):
SMILES	inhibition
Cc1ccc(NC(=S)N/N=C/c2c(C)nn(-c3ccccc3)c2N2CCCC2)cc1	inconclusive: 33.3%
CC(C)c1ccc(NC(=O)CCCN2C(=O)NC(C)(C)C2=O)cc1	inconclusive: 39.8%
O=C(CCc1nnc(CCCCc2ccccc2)o1)N1CCCC(O)C1 (stereo not given)	inactive: 20%
Cc1cc(NC(=O)CCC(=O)N(CC(=O)NC2CCCC2)c2ccccc2)no1	inconclusive: 38.1%

Next part:

SMILES	inhibition
Cc1ccccc1/C=N/Nc1nc2ccccc2[nH]1	inconclusive: 41.9%
Cc1ccc2c(c1)C(c1ccccc1)CC(=O)O2 (stereo not given)	inactive: -9.94%
CC(C)CC(c1nnnn1CC1CCCO1)N1CCN(c2nc3ccccc3s2)CC1 (stereo not given)	inconclusive: 35.5%
Cc1cccc(Cn2nc(C(C)(C)C)cc2C(=O)Nc2ccc(F)cc2)c1	inconclusive: 35%
CN1CCN(c2nc3ccccn3c(=O)c2/C=C(\C#N)S(=O)(=O)c2ccc(Cl)cc2)CC1	inconclusive: 35.1%
CCN(CC)S(=O)(=O)c1cccc(C(=O)NCC(=O)OCC(=O)NCc2ccccc2)c1	inconclusive: 63%
N#CC1=C(N)c2ccccc2CC12CCCCC2	inconclusive: 14.5%
Cc1nc2ccc(NC(=O)c3ccc(S(=O)(=O)N(C)c4ccccc4)cc3)cc2s1	inconclusive: 37.4%
COC(=O)c1c(N2C(=O)[C@H]3[C@@H](C2=O)[C@]2(C(=O)Nc4c2ccc(C)c4C)N2CCC[C@@H]32)sc(C)c1C	inconclusive: 37.5%
O=c1cc(NCCc2ccccc2)c2ccccc2o1	inactive: -9.21%
CC(=O)c1ccc(NC(=S)NCc2cccnc2)cc1	inconclusive: 61.1%
Cc1cc2c(ccc3c2no[n+]3[O-])nn1	inactive: 7.27%
Cc1cc(C)c(C(N)=O)c(Nc2cccc(Cl)c2C)n1	inconclusive: 51.3%
N#Cc1c(-c2ccco2)cc(-c2ccccn2)nc1N	inconclusive: 59.7%
O=C(NCc1nc(-c2ccccc2)no1)c1ccc2c(c1)OCO2	inconclusive: 46.4%
COc1cc2c(cc1OC)C(c1ccc3c(c1)OCO3)CC(=O)N2 (stereo not given)	inconclusive: 39.4%
Cc1cc(C(=O)CSc2nnnn2C)c(C)n1-c1ccc2c(c1)OCCO2	inconclusive: 49.4%
O=C(COC(=O)C(O)c1ccccc1)c1ccc2c(c1)OCCO2 (stereo not given)	inconclusive: 53.4%
COc1cc(N=c2ssnc2Cl)c(OC)cc1Cl	inconclusive: 48.5%
O=C(O)c1cc(NS(=O)(=O)c2cccs2)cc(NS(=O)(=O)c2cccs2)c1	inconclusive: 38.1%
Nc1c(C(=O)CSc2nccn2-c2ccc(Cl)cc2)c(=O)[nH]c(=O)n1C1CC1	inactive: -3.47%
CN(C)CCn1c(=S)[nH]c2ccccc2c1=O	inconclusive: 39.9%
O=C(COc1ccccc1)N1CCN(S(=O)(=O)c2ccc(Cl)cc2)CC1	inactive: 11.7%

SMILES	inhibition
COc1cccc(N2CCN(Cc3ccsc3)CC2)c1	inconclusive: 39%
COc1ccc2c(c1)c(C(=O)N/N=C/c1ccc(O)c(O)c1)c(C)n2C	inconclusive: 44.8%
Cc1c(Nc2c3c(c(C#N)c4nc5ccccc5n24)CCC3)c(=O)n(-c2ccccc2)n1C	inconclusive: 44.2%
CC(C)(C)c1cc(/C=N/NC(=O)Cc2nc3ccccc3[nH]2)cc(C(C)(C)C)c1O	inconclusive: 25.5%
O=S(=O)(/N=C/c1ccccc1O)c1cccs1	inconclusive: 29.7%
Cc1cc(C)cc(N2C(=O)CC(N(C(=O)c3ccco3)c3cc(C)cc(C)c3)C2=O)c1 (stereo not given)	inconclusive: 57.5%
O=C(O)CN1C(=O)S/C(=C\c2cccnc2)C1=O	inconclusive: 51.6%
CCOC(=O)CN/C=C(\C#N)c1ccc(F)cc1	inconclusive: 33.7%
Nc1cc(C(=O)OCC(=O)NCC2CCCO2)ccc1Cl (stereo not given)	inconclusive: 38.6%
CCOC(=O)c1[nH]c2ccc(Cl)cc2c1NC(=O)c1nonc1C	inconclusive: 56.7%
C/C(=N/NC(=O)CNC(=O)c1ccncc1)c1ccco1	inconclusive: 42.2%
CCCCn1c(-c2csc(C(C)C)c2)n[nH]c1=S	inconclusive: 58.1%
O=C(CCCN1C(=O)c2ccccc2C1=O)N1CCc2ccccc2C1	inactive: -3.95%
CN(C)CCNC(=O)c1cc(Sc2ccc(F)cc2)nc2ccccc12	inconclusive: 46.3%
CCOC(=O)c1sc2nc(CC(=O)OC)nc(NCc3ccc(F)cc3)c2c1C	inactive: -3.02%
Cc1ccc(NC(=O)N/C=C/c2ccco2)c(C)c1	inconclusive: 34%
CCOC(=O)C1=C(CN2CCOCC2)NC(=O)NC1c1cccc([N+](=O)[O-])c1 (stereo not given)	inconclusive: 55.4%
CC1=NNC(=O)C1C(c1ccc(Cl)cc1)C(C#N)C#N (stereo not given)	inconclusive: 46.8%
COC(=O)CN(c1cc(C(F)(F)F)ccc1Cl)S(C)(=O)=O	inconclusive: 34.4%
CCC(=O)OC1(C)C(=O)C2=COC(c3ccc(OC)cc3)=CC2=C(Br)C1=O (stereo not given)	inconclusive: 54.1%
CCCCNC(=S)NNC(=O)c1csc(C(C)C)c1	inconclusive: 56.3%
